Source: PubChem BioAssay AID686937 (Drosophila RNAi Screening Center, 2013)
The screen tested about 23,000 reagents; this is a random part of those that have a named target and a result. 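Reduced-secretion tags in replicate 1 do not always agree with the z-scores; no criterion for assigning the tags was given.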 Names joined by + are all predicted targets of the reagent. Further read-outs or replicates are left out here. Not given: the amount of reagent.

- Assay: 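Knock-downs that reduce output of a secreted reporter enzyme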 (primary screen)
- Cells: Drosophila S2 cells expressing secreted horseradish peroxidase
- Reagent: long dsRNA against Drosophila genes
- Time to read-out: about 5.5 days (5 days dsRNA, then 12 h reporter induction)
- Challenge: reporter expression induced after 5 days of dsRNA, read 12 h later; inducer not stated
- Read-out: 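After 5 days of dsRNA and 12 h of reporter induction, medium peroxidase read by chemiluminescence and scored as per-plate z-score; higher values mean more reporter released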
- Reading the numbers: z-score: higher = more reporter secreted into medium

Silencing of CG9344 [DRSC04541] gave: z-score, replicate 1 = -0.26.
Against CG8578 [DRSC20114], the entry reads z-score, replicate 1 = 0.1.
CG10462 [DRSC02058] scored z-score, replicate 1 = 0.56.
asf1 [DRSC11324] gave z-score, replicate 1 = 0.83.
For Ir51a [DRSC06256] the deposit lists z-score, replicate 1 = 0.6.
For CDase [DRSC14932] the deposit lists z-score, replicate 1 = 0.09.
For COX6AL [DRSC21454], the entry reads z-score, replicate 1 = -0.36.
Against Polr1D + DCTN6-p27 [DRSC02094], the entry reads z-score, replicate 1 = -0.06.
Silencing of CG15445 [DRSC20517] gave: z-score, replicate 1 = -0.09.
Knock-down of ck [DRSC03509] gave: z-score, replicate 1 = 0.31.
With knock-down of Eno [DRSC00750] the results were z-score, replicate 1 = -8.89; phenotype, replicate 1 = reduced secretion.
Depletion of CG44085 [DRSC02922] resulted in: z-score, replicate 1 = -4.77; phenotype, replicate 1 = reduced secretion.
With knock-down of CG44085 [DRSC02929], the screen gave z-score, replicate 1 = 0.56.
CHKov1 [DRSC01566] gave z-score, replicate 1 = -0.1.
Knock-down of CHKov1 [DRSC01696] came out at: z-score, replicate 1 = -0.33.
Silencing of CHKov1 [DRSC14258] gave: z-score, replicate 1 = 0.
For CHKov1 [DRSC20937], the values are z-score, replicate 1 = 0.42.

2 of these entries, reformatted.
predicted target,DRSC id,"z-score, replicate 1","phenotype, replicate 1"
CHKov1,DRSC01566,-0.1,
CHKov1,DRSC01696,-0.33,

The list goes on:
Depletion of Gyc88E [DRSC15547] resulted in: z-score, replicate 1 = 0.24.
After knock-down of regucalcin [DRSC18908], the record shows z-score, replicate 1 = -0.11.
After knock-down of regucalcin [DRSC20366] the results were z-score, replicate 1 = 0.38.
For Odc2 [DRSC07483] the deposit lists z-score, replicate 1 = 0.15.
Against CG17380 [DRSC15230], the entry reads z-score, replicate 1 = 0.29.
Knock-down of CG43894 [DRSC09225] came out at: z-score, replicate 1 = 0.14.
With knock-down of CG43894 [DRSC10123], the record shows z-score, replicate 1 = -0.05.
Silencing of CG3598 [DRSC18471] gave: z-score, replicate 1 = -0.01.
Knock-down of CG4363 [DRSC04465] came out at: z-score, replicate 1 = 0.02.
dgt1 [DRSC15301] gave z-score, replicate 1 = -0.07.
